# Reference: the supplement of paper PMC8256030
# Where “and” joins values, the source holds several entries; their conditions need not be identical. Equal entries are not always repeated. The list shows a part of the results. Repeats in this data set agree poorly, so a single value says little.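 HEK293T cells were given each compound shortly before transfection with a reporter in which red mCherry is followed by the SARS-CoV-2 frameshift element and then GFP in the −1 frame, so GFP appears only after frameshifting.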
# Key:
# [1] = system: SARS-CoV-2 -1 PRF reporter mCherry-FSE-GFP(-1); assay: mCherry (red) intensity as percent of control; higher = higher upstream reporter expression; conditions: 10 µM; 24 h; HEK293T
# [2] = system: SARS-CoV-2 -1 PRF reporter mCherry-FSE-GFP(-1); assay: percent effect, decrease of GFP/mCherry ratio (-1 PRF reporter) relative to controls; higher = stronger frameshift inhibition; conditions: 10 µM; 24 h; HEK293T
SMILES,mCherry [1],percent effect [2]
CC1(C)C2CCC1(CS(=O)(=O)O)C(=O)C2=Cc1ccc(C=C2C(=O)C3(CS(=O)(=O)O)CCC2C3(C)C)cc1,130%,-5.47%
CCCCS(=O)(=O)N[C@@H](Cc1ccc(OCCCCC2CCNCC2)cc1)C(=O)O [tirofiban],145%,14%
CC(C)CCCCC(=O)N[C@@H](CCN)C(=O)N[C@@H](CN[C@@H](CCN)C(=O)N[C@H]1CCNC(=O)[C@H]([C@@H](C)O)NC(=O)[C@H](CCN)NC(=O)[C@H](CCN)NC(=O)[C@H](CC(C)C)NC(=O)[C@@H](CC(C)C)NC(=O)[C@H](CCN)NC1=O)[C@@H](C)O.CCC(C)CCCCC(=O)N[C@@H](CCN)C(=O)N[C@@H](CN[C@@H](CCN)C(=O)N[C@H]1CCNC(=O)[C@H]([C@@H](C)O)NC(=O)[C@H](CCN)NC(=O)[C@H](CCN)NC(=O)[C@H](CC(C)C)NC(=O)[C@@H](CC(C)C)NC(=O)[C@H](CCN)NC1=O)[C@@H](C)O (stereo partly specified),96.3%,-3.35%
CNCC(O)c1ccc(OC(=O)C(C)(C)C)c(OC(=O)C(C)(C)C)c1 (stereo unspecified) [dipivefrine],101%,-5.69%
CO[C@H]1/C=C/O[C@@]2(C)Oc3c(C)c(O)c4c(O)c(c(/C=N/N5CCN(C6CCCC6)CC5)c(O)c4c3C2=O)NC(=O)/C(C)=C\C=C\[C@H](C)[C@H](O)[C@@H](C)[C@@H](O)[C@@H](C)[C@H](OC(C)=O)[C@@H]1C [Priftin],94.7%,0.362%
c1ccc2c(c1)cc1n2CCCNC1 [azepindole],96.5%,-1.15%
N=C(N)NS(=O)(=O)c1ccc(N)cc1 [sulfaguanidine],70.3%,-10.4%
CN=C(N)NCCCC(N)C(=O)O (stereo unspecified),104%,2.07%
CC(C)NC(=N)NC(=N)Nc1ccc(Cl)cc1 [proguanil],64.3%,-0.543%
FC(F)(Cl)C(F)(F)Cl [cryofluorane],112%,-4.48%
N#Cc1cc(NC(=O)C(=O)O)c(Cl)c(NC(=O)C(=O)O)c1 [lodoxamide],95.9%,0.158%
CN1CC(O)c2cc(N=NC(N)=O)c(O)cc21 (stereo unspecified) [carbazochrome],91.2%,-2.73%
CO/N=C(\C(=O)N[C@@H]1C(=O)N2C(C(=O)OC(C)OC(C)=O)=C(COC(N)=O)CS[C@H]12)c1ccco1 (stereo partly specified),81.9%,-1.06%
CCC[C@H](N[C@@H](C)C(=O)N1[C@H](C(=O)O)C[C@@H]2CCCC[C@@H]21)C(=O)OCC,120%,-0.978%
C[N+](C)(C)CCOP(=O)(O)OC[C@H](O)CO [choline alfoscerate],101%,-2.48%
CNC(=O)[C@@H](NC(=O)[C@H](CC(C)C)[C@H](O)C(=O)NO)C(C)(C)C [Marimastat],102%,-2.64%
Nc1ccc(S(=O)(=O)c2cnc(N)s2)cc1 [thiazosulfone],146%,-0.212%
CC(C)(CO)C(O)C(=O)NCCCO (stereo unspecified) [panthenol],88.2%,-1.89%
O=c1[nH]c2ccccc2n1CCCN1CCN(C(c2ccccc2)c2ccccc2)CC1 [oxatomide],82.4%,1.44%
O=P(O)(O)C(O)(Cn1ccnc1)P(=O)(O)O [Zoledronic acid],110%,2.39%
O=C(NCC1CCCO1)c1cc(Br)cc(Br)c1O (stereo unspecified) [fursalan],103%,-7.5%

SMILES,mCherry [1],percent effect [2]
O=C(O)CCC/C=C\CC1C(O)CC(O)C1/C=C/C(O)COc1cccc(Cl)c1 (stereo unspecified) [cloprostenol],65.2%,-0.129%
CCC(c1ccccc1)c1c(O)c2ccccc2oc1=O (stereo unspecified) [phenprocoumon],95.5%,-1.95%
CN1CCN(c2cc3c(cc2F)c(=O)c(C(=O)O)cn3-c2ccc(F)cc2)CC1,76%,-1.79%
CC(COc1ccccc1)N(CCCl)Cc1ccccc1 (stereo unspecified) [phenoxybenzamine],75.6% and 85.8%,-1.23% and -0.147%
COc1ccc2[nH]c([S+]([O-])Cc3ncc(C)c(OC)c3C)nc2n1 (stereo unspecified) [tenatoprazole],88.8% and 72.8%,-0.0316% and -0.993%
C[C@H]1O[C@@H](O[C@H]2[C@@H](O)C[C@H](O[C@H]3[C@@H](O)C[C@H](O[C@H]4CC[C@@]5(C)[C@H](CC[C@@H]6[C@@H]5CC[C@]5(C)[C@@H](C7=CC(=O)OC7)CC[C@]65O)C4)O[C@@H]3C)O[C@@H]2C)C[C@H](O)[C@@H]1O,14.9%,-11.2%
CC(C)OC(=O)CCC/C=C\C[C@@H]1[C@@H](CC[C@@H](O)CCc2ccccc2)[C@H](O)C[C@@H]1O [latanoprost],77.5%,-12.2%
C#Cc1cccc(Nc2ncnc3cc(OCCOC)c(OCCOC)cc23)c1 [Erlotinib],54.9%,-1.02%
C=C1[C@H](CO)[C@@H](O)C[C@@H]1n1cnc2c(=O)[nH]c(N)nc21 [Baraclude],101%,-0.0138%
NC12CC3CC(CC(C3)C1)C2 [amantadine],115%,-2.27%
Oc1cccc(O)c1,110%,-10.1%
O=C(O)c1ccccc1-c1ccc(C(F)(F)F)cc1 [xenalipin],81.1%,-13.6%
COc1cc2c(cc1OC)CC(=O)N(CCCN(C)C[C@H]1Cc3cc(OC)c(OC)cc31)CC2 [ivabradine],107%,-0.655%
COC(=O)C1=C(C)NC(C)=C(C(=O)OC(C)C)C1c1cccc2nonc12 (stereo unspecified) [isradipine],88.8%,0.964%
CCCCC[C@H](O)/C=C/[C@@H]1[C@H]2C/C(=C/CCCC(=O)O)O[C@H]2C[C@H]1O [Epoprostenol],93%,0.346%
Nc1nc(F)nc2c1ncn2[C@@H]1O[C@H](COP(=O)(O)O)[C@@H](O)[C@@H]1O,140%,1.33%
COc1ccc2cc([C@H](C)C(=O)O)ccc2c1 [naproxen],104%,-6.87%
CC(C)(C)[C@]1(O)CCN2C[C@H]3c4ccccc4CCc4cccc(c43)[C@@H]2C1 [butaclamol],89.5%,-0.739%
NC(=O)N[C@@H](CCC(=O)O)C(=O)O,85.5%,-5.5%
CC(=O)Nc1c(I)c(NC(C)=O)c(I)c(C(=O)O)c1I,135%,0.552%
C[C@@H]1[C@H](O)[C@@H](C)/C=C/C=C/C=C/C=C/C=C/C=C/C=C/[C@H](O[C@@H]2O[C@H](C)[C@@H](O)[C@H](N)[C@@H]2O)C[C@@H]2O[C@](O)(C[C@@H](O)C[C@@H](O)[C@H](O)CC[C@@H](O)C[C@@H](O)CC(=O)O[C@H]1C)C[C@H](O)[C@H]2C(=O)O,72.7%,-2.49%

# By substructure, the compounds so far containing fluorine
SMILES,mCherry [1],percent effect [2]
FC(F)(Cl)C(F)(F)Cl [cryofluorane],112%,-4.48%
CN1CCN(c2cc3c(cc2F)c(=O)c(C(=O)O)cn3-c2ccc(F)cc2)CC1,76%,-1.79%
O=C(O)c1ccccc1-c1ccc(C(F)(F)F)cc1 [xenalipin],81.1%,-13.6%
Nc1nc(F)nc2c1ncn2[C@@H]1O[C@H](COP(=O)(O)O)[C@@H](O)[C@@H]1O,140%,1.33%

# The listing continues.

SMILES,mCherry [1],percent effect [2]
CCN(CC)CC#CCOC(=O)C(O)(c1ccccc1)C1CCCCC1 (stereo unspecified),98.5%,-3.03%
CCOC(=O)[C@H](CCc1ccccc1)N[C@@H](C)C(=O)N1Cc2cc(OC)c(OC)cc2C[C@H]1C(=O)O [moexipril],130%,-1.63%
CN1C2CCCC1CC(NC(=O)c1nn(C)c3ccccc13)C2 (stereo unspecified),101%,-7.41%
C/C=C/C1=C(C(=O)O)N2C(=O)[C@@H](NC(=O)[C@H](N)c3ccc(O)cc3)[C@H]2SC1,103%,-7.04%
CO[C@@H]1[C@@H](O[C@@H]2O[C@H](C)[C@@H](O[C@H]3C[C@@](C)(O)[C@@H](OC(=O)CC(C)C)[C@H](C)O3)[C@H](N(C)C)[C@H]2O)[C@@H](CC=O)C[C@@H](C)[C@@H](O)/C=C/C=C/C[C@@H](C)OC(=O)C[C@H]1OC(C)=O [Josamycin],103%,-1.74%
CC(=O)[C@@]12O[C@](C)(c3ccccc3)O[C@@H]1C[C@H]1[C@@H]3CCC4=CC(=O)CC[C@]4(C)[C@H]3CC[C@@]12C,76.8%,-4.83%
CC(C)N1CCN(c2ccc(OCC3COC(Cn4cncn4)(c4ccc(Cl)cc4Cl)O3)cc2)CC1 (stereo unspecified) [terconazole],107%,-1.16%
CC(=O)N(CC(O)CO)c1c(I)c(C(=O)NCC(O)CO)c(I)c(C(=O)NCC(O)CO)c1I (stereo unspecified),104%,-0.306%
CCCOc1ccc(C(=O)CCN2CCCCC2)cc1 [propipocaine],85.5%,-2.64%
CCOC(=O)c1ccc(OC(=O)CCCCCNC(=N)N)cc1 [gabexate],97.3%,-1.35%
CCCN(CCC)CCc1cccc2c1CC(=O)N2,96.1%,-3.39%
CC1(C)S[C@@H]2[C@H](/N=C/N3CCCCCC3)C(=O)N2[C@H]1C(=O)O [mecillinam],92%,-4.46%
CC1(c2ccccc2)CC(=O)N(CN2CCOCC2)C1=O (stereo unspecified) [morsuximide],96.9%,-11.1%
NS(=O)(=O)Cc1noc2ccccc12 [zonisamide],101%,3.51%
CCCCCCCCCCCCCCCCCCCCCCO,99.6%,-0.422%
O.O.O.O.O.O.O.O.O.O.O.O.O.O.O.O.O.O.O.O.O=S(=O)([O][Al])OC[C@H]1O[C@@](COS(=O)(=O)[O][Al])(O[C@H]2O[C@H](COS(=O)(=O)[O][Al])[C@@H](OS(=O)(=O)[O][Al])[C@H](OS(=O)(=O)[O][Al])[C@H]2OS(=O)(=O)[O][Al])[C@@H](OS(=O)(=O)[O][Al])[C@@H]1OS(=O)(=O)[O][Al].[Al],116%,-6.08%
c1ccc(OCc2ccc(CCCN3CCOCC3)cc2)cc1 [fomocaine],75.6%,-3.94%
Nc1c2c(nc3ccccc13)CCCC2O (stereo unspecified) [velnacrine],77.4%,-2.02%
CC[C@]1(O)C[C@@H]2CN(CCc3c([nH]c4ccccc34)[C@@](C(=O)OC)(c3cc4c(cc3OC)N(C)[C@H]3[C@@](O)(C(=O)OC)[C@H](OC(C)=O)[C@]5(CC)C=CCN6CC[C@]43[C@@H]65)C2)C1,20.8%,-0.238%
CC/C=C\C/C=C\C/C=C\C/C=C\C/C=C\C/C=C\CCC(=O)O [doconexent],95%,-1.46%
O=C(NCC1CCCCN1)c1cc(OCC(F)(F)F)ccc1OCC(F)(F)F (stereo unspecified) [Flecainide acetate],83.5%,-2.92%
